Assay results reported in PubChem BioAssay AID1487 (National Center for Advancing Translational Sciences (NCATS), 2009).
Where “and” joins values, the source holds several entries; their conditions need not be identical. Equal values may be shown once. The list shows a part of the results. Further columns of the screen follow, without active or inactive calls. The list favours compounds with an active or inconclusive main result. The note in brackets gives the kind of curve behind each potency; many fits are weak.

Test: qHTS Assay for Modulators of Lamin A Splicing
Conditions: HeLa LMNA splicing GFP/RFP minigene ratio, 48 h
Summary of the method: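 S3 HeLa cells stably expressing lamin A-EGFP splicing minigene plus DsRed2, 600 cells/well, 48 h compound exposure at 37C. Laser-scanning cytometry; analysed as GFP (500-530 nm)/RFP (575-640 nm) total intensity ratio; 0.5% DMSO vehicle.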

[1] = measured here: GFP splicing reporter channel
[2] = measured here: RFP viability control channel

## O=C(COc1ccccc1F)Nc1ccc(S(=O)(=O)NCc2ccco2)cc1
[1]
  AC50: 31.6 µM [rising, single point]
[2]
  AC50: 35.5 µM [rising, single point]

## Cc1nc2ncccn2c1-c1csc(NCc2ccco2)n1
[2]
  AC50: 25.1 µM [rising, single point]

## COc1ccc(/C=N\NC(=O)c2ccc(Cn3cc(Br)c([N+](=O)[O-])n3)o2)c(OC)c1C
[2]
  AC50: 2.51 µM [falling, partial curve, poor fit]

## CC(=O)Nc1sc(NC(=O)c2ccc(Cl)cc2)nc1-c1cccs1
[1]
  AC50: 14.1 µM [rising, partial curve]

## CCSC1=C(C#N)C2(CCCCC2)C2=C(CC(C)(C)CC2=O)N1
[1]
  AC50: 1.41 µM [rising, full curve, poor fit]

## CCNc1nc(Oc2ccc(OC)cc2)cc(C(F)(F)F)n1
[1]
  AC50: 7.94 µM [rising, partial curve, poor fit]

## Cc1cc(NC(=O)CS(=O)(=O)c2cn(Cc3cccc(F)c3)c3ccccc23)no1
[2]
  AC50: 35.5 µM [rising, single point]

## CCOC(=O)c1ccc(NC(=O)CCc2nc(-c3ccccc3)no2)cc1
[2]
  AC50: 31.6 µM [rising, partial curve]

## Cc1[nH]c2ccccc2c1C(=O)CN1C(=O)NC(C)(c2ccc(Cl)cc2Cl)C1=O (stereo not drawn)
[2]
  AC50: 35.5 µM [rising, single point]

## COc1cccc(N2CCN(C(=O)CN3CCSc4ccccc43)CC2)c1
[1]
  AC50: 0.0316 µM [rising, full curve, poor fit]

## COc1cc(C(=O)Nc2ccc(-c3nc4cc(C)ccc4o3)c(O)c2)cc(OC)c1OC
[1]
  AC50: 14.1 µM [falling, partial curve]

## O=C(c1ccncc1)N1CCN(C(=O)c2cccc3ccccc23)CC1
[1]
  AC50: 5.62 µM [rising, single point]
[2]
  AC50: 5.62 µM [rising, single point]

## COc1ccc2cc3[n+](cc2c1OC)CCc1cc2c(cc1-3)OCO2
[1]
  AC50: 2.82 µM [falling, full curve] and 3.55 µM [rising, single point]
[2]
  AC50: 11.2 µM [rising, single point] and 7.08 µM [rising, partial curve]

## Cc1ccccc1CCNC(=O)c1ccc2c(c1)nc1n2CCCCC1
[2]
  AC50: 20 µM [rising, single point]

## COc1cc(N2CCCC2)c(OC)cc1/C=C(/C#N)c1ccc(F)cc1
[1]
  AC50: 25.1 µM [rising, partial curve, poor fit]
[2]
  AC50: 35.5 µM [rising, single point]

## CCCCOc1ccc(-c2cc(C(F)(F)F)c(C#N)c(SCC(=O)O)n2)cc1
[1]
  AC50: 22.4 µM [rising, single point]
[2]
  AC50: 31.6 µM [rising, single point]

## Cc1c(Cl)cccc1N/C(SCC(=O)N1CCCCCC1)=C(/C#N)c1nc2ccccc2s1
[1]
  AC50: 6.31 µM [rising, partial curve]
[2]
  AC50: 11.2 µM [rising, partial curve]

## COC(=O)c1ccccc1NC(=O)CSc1nc(C)c(Cl)c(C)c1C#N
[1]
  AC50: 35.5 µM [falling, single point]

## COc1ccc(-c2cc(=O)c3ccccc3[nH]2)cc1
[2]
  AC50: 1 µM [rising, partial curve]

## O=C(Nc1cccc(F)c1)N1CC=C(n2c(=O)[nH]c3ccccc32)CC1
[2]
  AC50: 31.6 µM [rising, single point]

## COc1ccc(-c2noc(Cc3ccccc3OC)n2)cc1
[2]
  AC50: 35.5 µM [rising, single point]

## C=CCOC(=O)c1sc(NC(=O)c2ccco2)nc1C
[1]
  AC50: 7.94 µM [rising, partial curve]
[2]
  AC50: 14.1 µM [rising, partial curve]

## COc1cccc(-c2cc(C(=O)Nc3cc(C)n(Cc4ccc(Cl)cc4)n3)no2)c1
[2]
  AC50: 2.51 µM [rising, single point]

## COc1ccccc1NC(=O)Cn1nc(-c2ccc(Cl)cc2)c2ccccc2c1=O
[1]
  AC50: 2 µM [rising, partial curve]

## COc1ccc(-c2cc(-c3ccccc3)c(C#N)c(S(C)=O)n2)cc1 (stereo not drawn)
[1]
  AC50: 35.5 µM [falling, single point]

## O=C(Nc1ccccc1)c1cc(S(=O)(=O)N2CCOCC2)cs1
[2]
  AC50: 12.6 µM [rising, single point]

## Cc1ccccc1Cn1c2ccccc2c2cn[nH]c(=O)c21
[1]
  AC50: 20 µM [rising, partial curve, poor fit]
[2]
  AC50: 14.1 µM [rising, single point]

## O=C(COC(=O)c1ccccc1NCc1ccco1)Nc1ccc2c(c1)OCO2
[2]
  AC50: 0.01 µM [falling, full curve, poor fit]

## c1ccc2[nH]c(CSc3nc4ccccc4s3)nc2c1
[2]
  AC50: 12.6 µM [rising, partial curve]

## COc1ccc(-c2nc(CCNC(=O)c3ccc(Br)o3)cs2)cc1
[2]
  AC50: 14.1 µM [rising, partial curve]

## O=C(NCCC1=CCCCC1)C1CCN(S(=O)(=O)c2ccc(-n3cnnn3)cc2)CC1
[1]
  AC50: 12.6 µM [rising, single point]
[2]
  AC50: 15.8 µM [rising, single point]

## COC(=O)c1cnn(-c2cc(Oc3cccc(C)c3)ncn2)c1N
[2]
  AC50: 25.1 µM [rising, single point]

## CN(C)CCCN1C(=O)CSC1c1ccc([N+](=O)[O-])cc1 (stereo not drawn)
[1]
  AC50: 28.2 µM [rising, single point]

## Fc1ccc(NC(=S)NCCc2ccc(Cl)cc2)cc1
[2]
  AC50: 12.6 µM [rising, single point]

## O=C(Cc1ccccc1)N/N=C/c1ccccc1Cl
[2]
  AC50: 17.8 µM [rising, partial curve, poor fit]

## Cc1ccc(Nc2sc(C(=O)c3ccccc3)c(N)c2C(N)=O)cc1
[1]
  AC50: 20 µM [rising, single point]
[2]
  AC50: 14.1 µM [rising, single point]

## COc1ccc(-c2nc3c(c4c2C[C@H](c2ccccc2)OC4)CN(C(=O)NCc2ccco2)CC3)c(C)c1
[1]
  AC50: 2.24 µM [rising, partial curve, poor fit]

## CCCn1c(SCC(=O)Nc2cc(Cl)ccc2Cl)n[nH]c1=O
[1]
  AC50: 2.51 µM [falling, partial curve]

## O=C1Nc2ccccc2N=C(c2ccccc2)c2ccccc21
[2]
  AC50: 0.00562 µM [falling, full curve, poor fit]

## NC(=O)c1ccsc1NC(=O)CSc1nnc(Nc2ccccc2)s1
[1]
  AC50: 35.5 µM [rising, single point]

## COC(=O)c1c(-c2ccc3ccccc3c2)csc1NC(=O)Cc1ccc(OC)c(OC)c1
[2]
  AC50: 17.8 µM [falling, single point]

## CC(C)n1c(NCc2c[nH]c3ccccc23)nc2ccccc21
[2]
  AC50: 35.5 µM [rising, single point]

## Cc1ccnc(NC(=O)CSc2cc(=O)n(C)c3ccccc23)c1
[2]
  AC50: 3.16 µM [falling, partial curve, poor fit]

## Cc1noc(C)c1-c1cc(NCc2cccs2)ncn1
[1]
  AC50: 15.8 µM [falling, partial curve]

## CCOC(=O)c1cc(C(=O)OCC)c(=O)[nH]c1N1CCCCC1
[2]
  AC50: 0.794 µM [falling, full curve, poor fit]

## O=S(=O)(NC1CC2CCC1C2)c1ccc2c(c1)OCCO2 (stereo not drawn)
[2]
  AC50: 25.1 µM [rising, single point]

## Cc1ccc(Cl)cc1NC(=O)c1ccc(Cn2cc(Cl)cn2)cc1
[1]
  AC50: 35.5 µM [rising, single point]
[2]
  AC50: 35.5 µM [rising, single point]

## COCC(C)Nc1ncnc2c1cnn2-c1ccc(C)c(C)c1 (stereo not drawn)
[1]
  AC50: 0.224 µM [falling, full curve, poor fit]

## CC(=O)C1=C(C)N(Cc2ccccc2)C(=O)N[C@H]1c1cccc(C(F)(F)F)c1
[1]
  AC50: 31.6 µM [rising, single point]

## COc1cccc(C(=O)/C=C/Nc2ccc(S(=O)(=O)Nc3cccc(C(C)=O)c3)cc2)c1
[1]
  AC50: 5.01 µM [rising, partial curve]
[2]
  AC50: 10 µM [rising, partial curve]

## Cc1cccc(C(CC(=O)NCCc2ccccc2)c2ccccc2)c1O (stereo not drawn)
[2]
  AC50: 7.08 µM [rising, partial curve, poor fit]

## CC(C)(C)C(=O)OCOC(=O)[C@@H]1N2C(=O)[C@@H](N=CN3CCCCCC3)[C@H]2SC1(C)C
[1]
  AC50: 1.58 µM [falling, single point]
[2]
  AC50: 0.398 µM [rising, full curve, poor fit]

## Cc1ccc(S(=O)(=O)NC(C)C(c2cccs2)N2CCN(c3ccccc3)CC2)cc1 (stereo not drawn)
[1]
  AC50: 17.8 µM [rising, single point]
[2]
  AC50: 20 µM [rising, partial curve]

## CCOC(=O)c1c(S(=O)(=O)N2CCCC(C(=O)NCc3ccccc3OC)C2)c(C)n(C)c1C (stereo not drawn)
[2]
  AC50: 10 µM [falling, partial curve, poor fit]

## N#Cc1c(NC(=O)C2CCCO2)sc2c1CCCCCC2 (stereo not drawn)
[2]
  AC50: 3.98 µM [rising, partial curve, poor fit]

## COc1cc(/C=C2/SC(=S)N(CC(=O)NC(C)(C)C)C2=O)cc(OC)c1OC
[1]
  AC50: 35.5 µM [rising, single point]
[2]
  AC50: 35.5 µM [rising, single point]

## O=c1c(CCc2ccccc2)nc2cncnc2n1Cc1ccc(F)cc1
[1]
  AC50: 20 µM [falling, single point]

## N#Cc1ccc(C(=O)Nc2cc(S(=O)(=O)Nc3ccc(Cl)cc3)ccc2N2CCCCC2)cc1
[2]
  AC50: 2.24 µM [rising, full curve, poor fit]
